Counter-ions that a name gives are not always drawn. The list shows a part of the results. Many values rest on one well or one pass, so single values are uncertain.

The test system of this assay is Reh. As to the kind of experiment: S-phase gammaH2AX median, Z-score vs plate median (drug alone); higher = more S-phase DNA damage. Conditions: MK1775 concentration 0 nM; 10 µM; 4 h.
In the case of `O=c1oc2c(O)c(O)cc3c(=O)oc4c(O)c(O)cc1c4c23` [Ellagic acid], the “S-phase gammaH2AX median (Z-score)” value turned out to be 0.0205.

`c1ccc2c(CC3=NCCN3)cccc2c1` [Naphazoline hydrochloride]: the “S-phase gammaH2AX median (Z-score)” value was determined as 0.0639.

Turning to `O=C(O)[C@@H]1C[C@H](C(=O)O)N1` [cis-Azetidine-2,4-dicarboxylic acid], the “S-phase gammaH2AX median (Z-score)” value was found to be 0.0796.

Take `CC(C=CC(=O)NO)=CC(C)C(=O)c1ccc(N(C)C)cc1` (stereo unspecified) [Trichostatin A (TSA)]: the “S-phase gammaH2AX median (Z-score)” value was found to be 0.174.

For the molecule `CCN(CC)CC(=O)Nc1c(C)cccc1C` [Lidocaine hydrochloride], the “S-phase gammaH2AX median (Z-score)” value came to 0.125.

Turning to `Nc1ncnc2c1nc(Br)n2C1OC2COP(=O)(O)O[C@@H]2C1O` (stereo partly specified) [8-Bromo-cAMP sodium], the “S-phase gammaH2AX median (Z-score)” value amounted to 0.00971.

Take `Ic1ccc(N2CCN(Cc3c[nH]c4ncccc34)CC2)cc1` [L-750,667 trihydrochloride]: the “S-phase gammaH2AX median (Z-score)” value was -0.111.

As for `COc1cccc2c1C(=O)c1c(O)c3c(c(O)c1C2=O)C[C@@](O)(C(C)=O)C[C@@H]3O[C@H]1C[C@H](N)[C@H](O)[C@H](C)O1` [Daunorubicin HCl (Daunomycin HCl)], the “S-phase gammaH2AX median (Z-score)” value was -0.0754.

As to `CNC(=O)c1cc(Oc2ccc(NC(=O)Nc3ccc(Cl)c(C(F)(F)F)c3)cc2)ccn1` [Sorafenib (Nexavar)], the “S-phase gammaH2AX median (Z-score)” value was -0.0824.

`O=C(Nc1cccc(C(=O)Nc2ccc(S(=O)(=O)O)c3cc(S(=O)(=O)O)cc(S(=O)(=O)O)c23)c1)Nc1cccc(C(=O)Nc2ccc(S(=O)(=O)O)c3cc(S(=O)(=O)O)cc(S(=O)(=O)O)c23)c1`: the “S-phase gammaH2AX median (Z-score)” value was -0.0166.

In the case of `N#CCNC(=O)c1ccc(-c2ccnc(Nc3ccc(N4CCOCC4)cc3)n2)cc1`, the “S-phase gammaH2AX median (Z-score)” value was 0.00348.

`O=C(/C=C/c1ccc(O)cc1)c1ccc(O)cc1O` [Isoliquiritigenin]: the “S-phase gammaH2AX median (Z-score)” value was 0.186.

Consider `COC1(C2=NCCN2)COc2ccccc2O1` (stereo unspecified), for which the “S-phase gammaH2AX median (Z-score)” value is -0.174.

As for `CC(C)NC[C@@H](O)COc1ccc(CC(N)=O)cc1` [R(+)-Atenolol], the “S-phase gammaH2AX median (Z-score)” value is -0.0175.

In the case of `CN(C)CCCN=c1c2ccccc2n(C)c2[nH]c(=O)n(C)c(=O)c12`, the “S-phase gammaH2AX median (Z-score)” value came to 0.07.

Turning to `Nc1cc(=O)[nH]c(N)n1` [2,6-Diamino-4-pyrimidinone], the “S-phase gammaH2AX median (Z-score)” value was determined as 0.0693.

Take `N[C@@H](Cc1c[nH]c2ccccc12)C(=O)O` [L-Tryptophan]: the “S-phase gammaH2AX median (Z-score)” value was -0.1.

Take `COc1cc2nccc(Oc3ccc(NC(=O)NC4CC4)c(Cl)c3)c2cc1C(N)=O` [E7080 (Lenvatinib)]: the “S-phase gammaH2AX median (Z-score)” value worked out at 0.0715.

As for `CCn1c(=O)[nH]c2cc(Cl)c(Cl)cc21`, the “S-phase gammaH2AX median (Z-score)” value was -0.0346.

In the case of `CC[C@@H]1C(=O)OC[C@@H]1Cc1cncn1C` [Pilocarpine nitrate], the “S-phase gammaH2AX median (Z-score)” value is -0.00473.

For `CC[C@@H]1C(=O)OC[C@@H]1Cc1cncn1C` [(+)-Pilocarpine hydrochloride], the “S-phase gammaH2AX median (Z-score)” value was -0.0946.

For the molecule `CN1C(=O)CC[C@H]1c1cccnc1` [(-)-Cotinine], the “S-phase gammaH2AX median (Z-score)” value was -0.068.

`COC(=O)[C@H](NC(=O)c1cc(-c2ccccc2)nc2ccccc12)c1ccccc1`: the “S-phase gammaH2AX median (Z-score)” value is 0.0472.

As for `N#Cc1cc2nc(O)c(O)nc2cc1[N+](=O)[O-]` [CNQX disodium], the “S-phase gammaH2AX median (Z-score)” value is -0.0369.

Turning to `C[C@@H](CN1CCC(Cc2ccccc2)CC1)[C@@H](O)c1ccc(O)cc1` [Ro 25-6981 hydrochloride], the “S-phase gammaH2AX median (Z-score)” value is -0.0851.

Take `N[C@@H](CS(=O)O)C(=O)O` [L-Cysteinesulfinic Acid]: the “S-phase gammaH2AX median (Z-score)” value came out at 0.00971.

With `Cc1cc(NC(=O)Nc2ccc3c(ccn3C)c2)sn1`, the “S-phase gammaH2AX median (Z-score)” value came to 0.233.

For `Cc1ccc(=O)n(-c2ccccc2)c1` [Pirfenidone], the “S-phase gammaH2AX median (Z-score)” value was -0.116.

`O=C(Cc1ccc(Cl)c(Cl)c1)OCCN1CCCC1` [AC 915 oxalate]: the “S-phase gammaH2AX median (Z-score)” value was 0.0524.

`Nc1cc(Cl)c(NC2=NCCN2)c(Cl)c1` [p-Aminoclonidine hydrochloride]: the “S-phase gammaH2AX median (Z-score)” value was -0.068.

As for `NO` [Hydroxylamine hydrochloride], the “S-phase gammaH2AX median (Z-score)” value was -0.0945.

As to `O=c1[nH]c2ccccc2n1CCCN1CCN(C(c2ccccc2)c2ccccc2)CC1` [Oxatomide], the “S-phase gammaH2AX median (Z-score)” value is -0.0118.

Take `Nc1nc(Cl)nc2c1ncn2[C@@H]1O[C@H](CO)[C@@H](O)[C@H]1O` [2-Chloroadenosine]: the “S-phase gammaH2AX median (Z-score)” value came to 0.551.

In the case of `CC(C)OC(=O)C1=CN(C(=O)c2ccc(F)c(F)c2)CC(C)(C)c2c1[nH]c1ccccc21`, the “S-phase gammaH2AX median (Z-score)” value is 0.134.

Consider `Cc1ccc(F)c(NC(=O)Nc2ccc(-c3cccc4[nH]nc(N)c34)cc2)c1` [Linifanib (ABT-869)], for which the “S-phase gammaH2AX median (Z-score)” value is -0.107.

On to `C[N+](C)(C)CC(=O)O` [Betaine hydrochloride], for which the “S-phase gammaH2AX median (Z-score)” value came to 0.0447.

Take `CC[C@H](CO)Nc1nc(NCc2ccccc2)c2ncn(C(C)C)c2n1` [Roscovitine]: the “S-phase gammaH2AX median (Z-score)” value is -0.464.

In the case of `CC[C@H](CO)Nc1nc(NCc2ccccc2)c2ncn(C(C)C)c2n1` [Roscovitine (Seliciclib, CYC202)], the “S-phase gammaH2AX median (Z-score)” value is -0.14.

For the molecule `Cc1ccc(NC(=O)c2cccc(C(C)(C)C#N)c2)cc1Nc1ccc2ncn(C)c(=O)c2c1`, the “S-phase gammaH2AX median (Z-score)” value was 0.07.

Take `OCCN(CCO)c1nc(N2CCCCC2)c2nc(N(CCO)CCO)nc(N3CCCCC3)c2n1` [Dipyridamole]: the “S-phase gammaH2AX median (Z-score)” value was -0.142.

In the case of `NC(N)=NC(=O)c1nc(Cl)c(N2CCCCCC2)nc1N` [5-(N,N-hexamethylene)amiloride], the “S-phase gammaH2AX median (Z-score)” value is 1.02.

`CC1=C(CC(=O)O)c2cc(F)ccc2/C1=C\c1ccc(S(C)(=O)=O)cc1` [Sulindac sulfone]: the “S-phase gammaH2AX median (Z-score)” value worked out at 0.133.

Take `Cc1nc2sccn2c(=O)c1CCN1CCC(=C(c2ccccc2)c2ccc(F)cc2)CC1` [Diacylglycerol kinase inhibitor I]: the “S-phase gammaH2AX median (Z-score)” value is 0.0252.

With `O=C1CN(/N=C/c2ccc(-c3ccc([N+](=O)[O-])cc3)o2)C(=O)N1` [Dantrolene sodium], the “S-phase gammaH2AX median (Z-score)” value is -0.0063.

Consider `Nc1[nH]nc2nnc(-c3c(-c4ccccc4)nn4ccccc34)cc12`, for which the “S-phase gammaH2AX median (Z-score)” value is -0.0228.

As for `O=C(c1ccc2c(c1)OCCO2)N1CCCCC1`, the “S-phase gammaH2AX median (Z-score)” value was 0.0136.

Consider `CC(C)CN(C)c1nc(N)c(C(=O)N=C(N)N)nc1Cl` [5-(N-Methyl-N-isobutyl)amiloride], for which the “S-phase gammaH2AX median (Z-score)” value turned out to be 0.596.

As for `C[C@]12C[C@H](O)[C@H]3[C@@H](CCC4=CC(=O)CC[C@@]43C)[C@@H]1CC[C@@H]2C(=O)CO` [Corticosterone], the “S-phase gammaH2AX median (Z-score)” value was -0.0311.

As for `COc1ccc(S(=O)(=O)Nc2cccnc2Nc2ccc(O)cc2)cc1`, the “S-phase gammaH2AX median (Z-score)” value stood at 0.046.

For the molecule `O=C(CCCCCCC(=O)Nc1ccccc1)NO` [Vorinostat (SAHA)], the “S-phase gammaH2AX median (Z-score)” value was 0.471.

Consider `Cc1cc(C)c(NC(=O)C[C@H](CC(=O)O)c2cccc3ccccc23)c(C(=O)N2CCC3(CCCC3)CC2)c1`, for which the “S-phase gammaH2AX median (Z-score)” value was -0.22.

On to `Oc1ccc(Cn2cc[nH]c2=S)cc1` [1-(4-Hydroxybenzyl)imidazole-2-thiol], for which the “S-phase gammaH2AX median (Z-score)” value was 0.0819.

For the molecule `COc1ccccc1N1CCN(CCN(C(=O)c2ccc(F)cc2)c2ccccn2)CC1` [p-MPPF dihydrochloride], the “S-phase gammaH2AX median (Z-score)” value came out at 0.0473.

For the molecule `c1ccc(-c2ccccn2)nc1` [2,2'-Bipyridyl], the “S-phase gammaH2AX median (Z-score)” value was -0.0724.

Consider `O=C(O)c1ccc2c(c1)nc(Nc1cccc(Cl)c1)c1ccncc12` [cx-4945 (Silmitasertib)], for which the “S-phase gammaH2AX median (Z-score)” value is -0.205.

As to `COc1cc2/c(=N/c3ccc(Br)cc3F)nc[nH]c2cc1OCC1CCN(C)CC1` [Vandetanib (Zactima)], the “S-phase gammaH2AX median (Z-score)” value was -0.0769.

For `CCN(CC)C(=S)SSC(=S)N(CC)CC` [Disulfiram (Antabuse)], the “S-phase gammaH2AX median (Z-score)” value is 0.215.

As to `C=C[C@@]1(C)CC(=O)[C@]2(O)[C@@]3(C)[C@@H](O)CCC(C)(C)[C@@H]3[C@H](O)[C@H](OC(C)=O)[C@@]2(C)O1` [Forskolin], the “S-phase gammaH2AX median (Z-score)” value was -0.255.

Take `Nc1c2c(nc3ccccc13)CCCC2` [9-Amino-1,2,3,4-tetrahydroacridine hydrochloride]: the “S-phase gammaH2AX median (Z-score)” value was -0.0621.

`NC(CCCP(=O)(O)O)C(=O)O` (stereo unspecified) [(?)-2-Amino-5-phosphonopentanoic acid]: the “S-phase gammaH2AX median (Z-score)” value was 0.0408.

Regarding `O=C(O)C(Cc1c[nH]c2ccccc12)N1C(=O)c2ccccc2C1=O` (stereo unspecified), the “S-phase gammaH2AX median (Z-score)” value is -0.0151.

For `CCCCCN(CCCCC)C(=O)C(CCC(=O)O)NC(=O)c1ccc(Cl)c(Cl)c1` (stereo unspecified) [Lorglumide sodium], the “S-phase gammaH2AX median (Z-score)” value was -0.173.

Regarding `CC(C)NCC(O)c1ccc(O)c(O)c1` (stereo unspecified) [(?)-Isoproterenol hydrochloride], the “S-phase gammaH2AX median (Z-score)” value was -0.29.

For the molecule `CC(C)NCC(O)c1ccc(O)c(O)c1` (stereo not drawn) [S(+)-Isoproterenol (+)-bitartrate], the “S-phase gammaH2AX median (Z-score)” value was -0.239.

Regarding `CS(=O)(=O)N1CCN(Cc2cc3nc(-c4cccc5[nH]ncc45)nc(N4CCOCC4)c3s2)CC1`, the “S-phase gammaH2AX median (Z-score)” value was -0.14.

As to `NCCSSCCN` [Cystamine dihydrochloride], the “S-phase gammaH2AX median (Z-score)” value is 0.00971.

Consider `Nc1nc2c(ncn2COCCO)c(=O)[nH]1` [Acyclovir], for which the “S-phase gammaH2AX median (Z-score)” value came to 0.177.

Consider `COC(=O)c1c(C)[nH]c(C)c1C(=O)c1ccccc1Cc1ccccc1`, for which the “S-phase gammaH2AX median (Z-score)” value was -0.0063.

Take `COc1cc(C(O)CO)ccc1OS(=O)(=O)O` (stereo unspecified) [MHPG sulfate potassium]: the “S-phase gammaH2AX median (Z-score)” value amounted to 0.101.

On to `CN1[C@@H]2CC[C@H]1CC(OC(=O)c1c[nH]c3ccccc13)C2` (stereo partly specified) [3-Tropanyl-indole-3-carboxylate hydrochloride], for which the “S-phase gammaH2AX median (Z-score)” value was -0.187.

Take `CCCCCCCCCCCCCCCCCCOCC(COP(=O)([O-])OCC[N+](C)(C)C)OC` (stereo unspecified): the “S-phase gammaH2AX median (Z-score)” value is -0.00945.

With `COc1ccc(/C=C\c2cc(OC)c(OC)c(OC)c2)cc1O` [Combretastatin A4], the “S-phase gammaH2AX median (Z-score)” value is -0.0738.

Regarding `CCCC1O[C@@H]2C[C@H]3[C@@H]4CCC5=CC(=O)C=C[C@]5(C)[C@H]4[C@@H](O)C[C@]3(C)[C@]2(C(=O)CO)O1` (stereo partly specified) [Budesonide], the “S-phase gammaH2AX median (Z-score)” value was 0.0641.

As to `NCCC1CCCC(CCN)N1` (stereo unspecified) [MDL 26,630 trihydrochloride], the “S-phase gammaH2AX median (Z-score)” value was -0.0568.

As to `CCOC(=O)c1ncn2c1CN(C)C(=O)c1cc(F)ccc1-2` [Flumazenil], the “S-phase gammaH2AX median (Z-score)” value is -0.148.

Take `O=NN(CCCl)C(=O)NCCCl` [Carmustine]: the “S-phase gammaH2AX median (Z-score)” value came out at 0.0155.

For the molecule `NCC(O)(CS(=O)(=O)O)c1ccc(Cl)cc1` (stereo unspecified) [2-Hydroxysaclofen], the “S-phase gammaH2AX median (Z-score)” value is -0.0951.

Regarding `N/C(=N\C(=O)c1nc(Cl)c(N)nc1N)NCc1ccc(Cl)c(Cl)c1` [3',4'-Dichlorobenzamil], the “S-phase gammaH2AX median (Z-score)” value was -0.498.

Regarding `CC[C@H](NC(=O)c1c(C)c(-c2ccccc2)nc2ccccc12)c1ccccc1`, the “S-phase gammaH2AX median (Z-score)” value amounted to 0.0699.

On to `CC(C(=O)O)c1cccc(C(=O)c2ccccc2)c1` (stereo unspecified) [Ketoprofen], for which the “S-phase gammaH2AX median (Z-score)” value was 0.0661.

Turning to `Nc1nc(N)c2nc(CNc3ccc(C(=O)N[C@@H](CCC(=O)O)C(=O)O)cc3)cnc2n1` [Aminopterin], the “S-phase gammaH2AX median (Z-score)” value amounted to 0.109.

The values above are taken from the supplement of paper PMC5355238.
